{"source": "PubChem BioAssay AID504793 (Drosophila RNAi Screening Center, 2011)", "aim": "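Whole-genome screen for parts of the DNA damage checkpoint at G2/M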 (primary screen)", "cell system": "Drosophila S2R+ cells", "reagent": "long dsRNA against Drosophila genes, about 0.25 µg dsRNA per well", "time to read-out": "4 days of dsRNA, then 4 hours of drug before read-out", "challenge": "doxorubicin 0.5 µM for 4 hours to cause double-strand breaks, in cells also given a low, harmless dose of dsRNA against nbs to sensitise the assay", "measurement": "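Per-well count of mitotic cells stained for phospho-histone H3 after doxorubicin exposure, used as mitotic index; counts are raw and not normalised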", "direction": "mitotic cells: higher = more cells in mitosis, weaker G2 arrest", "active means": "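Genes are called active only when high mitotic counts were reproduced with independent dsRNAs and mitosis was checked for delay without damage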", "meaning of the calls": "active = confirmed in follow-up tests; inactive = not confirmed", "note": "The screen tested about 23,000 reagents; shown is an unselected part of those with a known target gene and a result. In the full data, 62 (0.27%) are marked active. 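Calls come from follow-up tests whose scores are not deposited, so confirmed genes may have low counts here; counts are not normalised per plate.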 Raw values vary from plate to plate and are shown uncorrected."}
{"target": "pygo", "amplicon": "DRSC14322", "mitotic cells, replicate 1": 4, "Call": "inactive"}
{"target": "pygo", "amplicon": "DRSC25137", "mitotic cells, replicate 1": 11, "Call": "inactive"}
{"target": "CG5478", "amplicon": "DRSC15814", "mitotic cells, replicate 1": 3, "Call": "inactive"}
{"target": "CG13123", "amplicon": "DRSC02219", "mitotic cells, replicate 1": 6, "Call": "inactive"}
{"target": "CG11865", "amplicon": "DRSC01872", "mitotic cells, replicate 1": 4, "Call": "inactive"}
{"target": "CG11865", "amplicon": "DRSC28173", "mitotic cells, replicate 1": 1, "Call": "inactive"}
{"target": "CSN3", "amplicon": "DRSC11859", "mitotic cells, replicate 1": 5, "Call": "inactive"}
{"target": "CSN3", "amplicon": "DRSC25919", "mitotic cells, replicate 1": 14, "Call": "inactive"}

Individual results from the list.
Under “mitotic cells, replicate 1”, CG11865 [DRSC01872] shows 4
pygo [DRSC25137], mitotic cells, replicate 1 = 11

Next reagents follow.
{"target": "mbc", "amplicon": "DRSC16995", "mitotic cells, replicate 1": 8, "Call": "inactive"}
{"target": "CG31661", "amplicon": "DRSC00296", "mitotic cells, replicate 1": 9, "Call": "inactive"}
{"target": "CG31661", "amplicon": "DRSC28732", "mitotic cells, replicate 1": 9, "Call": "inactive"}
{"target": "mas", "amplicon": "DRSC08720", "mitotic cells, replicate 1": 4, "Call": "inactive"}
{"target": "mas", "amplicon": "DRSC28905", "mitotic cells, replicate 1": 8, "Call": "inactive"}
{"target": "CG13908 (retired record)", "amplicon": "DRSC08378", "mitotic cells, replicate 1": 9, "Call": "inactive"}
{"target": "CG13908 (retired record)", "amplicon": "DRSC27241", "mitotic cells, replicate 1": 2, "Call": "inactive"}
